{"source": "paper doi:10.1101/2023.11.08.566258", "key": {"[1]": {"biological_target": "T1, Prominin-1 (Prom1), wild type, C-terminally Strep-tagged (human) (UniProt O43490)", "T1 sequence": "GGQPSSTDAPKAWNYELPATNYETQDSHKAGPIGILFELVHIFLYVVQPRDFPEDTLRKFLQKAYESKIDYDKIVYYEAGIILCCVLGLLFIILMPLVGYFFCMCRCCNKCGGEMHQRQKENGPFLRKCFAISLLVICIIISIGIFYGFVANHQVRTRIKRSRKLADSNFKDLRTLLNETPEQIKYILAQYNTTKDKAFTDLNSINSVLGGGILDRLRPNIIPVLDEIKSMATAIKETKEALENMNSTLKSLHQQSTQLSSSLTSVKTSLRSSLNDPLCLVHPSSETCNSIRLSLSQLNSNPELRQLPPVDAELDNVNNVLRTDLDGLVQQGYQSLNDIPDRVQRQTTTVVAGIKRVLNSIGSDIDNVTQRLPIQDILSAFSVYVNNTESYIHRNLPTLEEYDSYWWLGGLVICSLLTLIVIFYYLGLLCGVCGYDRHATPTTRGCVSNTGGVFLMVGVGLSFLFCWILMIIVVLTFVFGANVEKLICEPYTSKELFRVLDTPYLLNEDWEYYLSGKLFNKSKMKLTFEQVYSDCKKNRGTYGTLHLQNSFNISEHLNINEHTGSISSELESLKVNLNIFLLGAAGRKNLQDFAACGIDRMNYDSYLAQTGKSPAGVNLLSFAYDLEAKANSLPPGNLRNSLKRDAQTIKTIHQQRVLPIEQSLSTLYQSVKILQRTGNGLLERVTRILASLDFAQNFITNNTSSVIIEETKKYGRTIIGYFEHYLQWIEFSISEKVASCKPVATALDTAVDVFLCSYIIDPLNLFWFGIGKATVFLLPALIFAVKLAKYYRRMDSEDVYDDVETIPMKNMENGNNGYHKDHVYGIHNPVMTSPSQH", "test": "co-IP; Prom1-Strep immunopurified on StrepTactinXT resin from EVs solubilized with 1% DDM (25 mM HEPES-NaOH pH 7.8, 150 mM NaCl, 5 mM CaCl2, 4 °C); co-purified Pcdh21-mNeonGreen measured by fluorescence imaging of the resin beads (FITC filter set); control without Prom1-Strep"}, "[2]": {"biological_target": "T1, Prominin-1 (Prom1), wild type, C-terminally Strep-tagged (human)", "test": "co-IP; EVs from cells co-transfected with Strep-tagged and mScarlet-tagged Prom1, solubilized with 1% DDM; Strep resin; co-purified Prom1-mScarlet measured by fluorescence imaging of the resin beads (CY3 filter set); control with Prom1-mScarlet alone"}}, "note": "No constants are given. Whether binding was seen depends on the method and setting. In cells and extracts the contact can be indirect. Some entries that bind do so weakly or less than the wild type. Tags and fused reporters may be left off the sequences shown.", "data": [{"binder": "Protocadherin-21 (Pcdh21), mNeonGreen-tagged (protein, UniProt Q96JP9-1 20-859) QANFAPHFFDNGVGSTNGNMALFSLPEDTPVGSHVYTLNGTDPEGDPISYHISFDPSTRSVFSVDPTFGNITLVEELDREREDEIEAIISISDGLNLVAEKVVILVTDANDEAPRFIQEPYVALVPEDIPAGSIIFKVHAVDRDTGSGGSVTYFLQNLHSPFAVDRHSGVLRLQAGATLDYERSRTHYITVVAKDGGGRLHGADVVFSATTTVTVNVEDVQDMAPVFVGTPYYGYVYEDTLPGSEVLKVVAMDGDRGKPNRILYSLVNGNDGAFEINETSGAISITQSPAQLQREVYELHVQVTEMSPAGSPAAQATVPVTIRIVDLNNHPPTFYGESGPQNRFELSMNEHPPQGEILRGLKITVNDSDQGANAKFNLQLVGPRGIFRVVPQTVLNEAQVTIIVENSAAIDFEKSKVLTFKLLAVEVNTPEKFSSTADVVIQLLDTNDNVPKFDSLYYVARIPENAPGGSSVVAVTAVDPDTGPWGEVKYSTYGTGADLFLIHPSTGLIYTQPWASLDAEATARYNFYVKAEDMEGKYSVAEVFITLLDVNDHPPQFGKSVQKKTMVLGTPVKIEAIDEDAEEPNNLVDYSITHAEPANVFDINSHTGEIWLKNSIRSLDALHNITPGRDCLWSLEVQAKDRGSPSFSTTALLKIDITDAETLSRSPMAAFLIQTKDNPMKAVGVLAGTMATVVAITVLISTATFWRNKKSNKVLPMRRVLRKRPSPAPRTIRIEWLKSKSTKAATKFMLKEKPPNENCNNNSPESSLLPRAPALPPPPSVAPSTGAAQWTVPTVSGSLTPQPTQPPPKPKTMGSPVQSTLISELKQKFEKKSVHNKAYF", "values": [{"measurement": "binding", "setting": "[1]", "result": "binds"}]}, {"binder": "Prominin-1 (Prom1), wild type, C-terminally Strep-tagged (protein, UniProt O43490-2 20-856) GGQPSSTDAPKAWNYELPATNYETQDSHKAGPIGILFELVHIFLYVVQPRDFPEDTLRKFLQKAYESKIDYDKIVYYEAGIILCCVLGLLFIILMPLVGYFFCMCRCCNKCGGEMHQRQKENGPFLRKCFAISLLVICIIISIGIFYGFVANHQVRTRIKRSRKLADSNFKDLRTLLNETPEQIKYILAQYNTTKDKAFTDLNSINSVLGGGILDRLRPNIIPVLDEIKSMATAIKETKEALENMNSTLKSLHQQSTQLSSSLTSVKTSLRSSLNDPLCLVHPSSETCNSIRLSLSQLNSNPELRQLPPVDAELDNVNNVLRTDLDGLVQQGYQSLNDIPDRVQRQTTTVVAGIKRVLNSIGSDIDNVTQRLPIQDILSAFSVYVNNTESYIHRNLPTLEEYDSYWWLGGLVICSLLTLIVIFYYLGLLCGVCGYDRHATPTTRGCVSNTGGVFLMVGVGLSFLFCWILMIIVVLTFVFGANVEKLICEPYTSKELFRVLDTPYLLNEDWEYYLSGKLFNKSKMKLTFEQVYSDCKKNRGTYGTLHLQNSFNISEHLNINEHTGSISSELESLKVNLNIFLLGAAGRKNLQDFAACGIDRMNYDSYLAQTGKSPAGVNLLSFAYDLEAKANSLPPGNLRNSLKRDAQTIKTIHQQRVLPIEQSLSTLYQSVKILQRTGNGLLERVTRILASLDFAQNFITNNTSSVIIEETKKYGRTIIGYFEHYLQWIEFSISEKVASCKPVATALDTAVDVFLCSYIIDPLNLFWFGIGKATVFLLPALIFAVKLAKYYRRMDSEDVYDDVETIPMKNMENGNNGYHKDHVYGIHNPVMTSPSQH", "values": [{"measurement": "binding", "setting": "[2]", "result": "binds"}]}]}
